# Taken from: PubChem BioAssay AID1224830 (NIAID, 2016)
# Purpose: 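Regulators of TLR4 signalling towards TNF-alpha in macrophage-like cells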 (primary screen)
# System: human THP-1 monocytic leukaemia cells, TNF dual-luciferase reporter clone, PMA-differentiated to macrophage-like cells
# Reagent: siRNA pool against human genes, 50 nM
# Timing: LPS for 4 h, given about 3 days after siRNA transfection
# Conditions: bacterial LPS (TLR4 ligand), 10 ng/ml
# Measured: 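TNF firefly reporter luminescence divided by renilla, normalised to the plate median, then turned into a robust z-score for each replicate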
# Direction: TNF reporter robust z-score: higher = stronger TNF reporter response to LPS
# Rule for the call: 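Each well counts as active if its z-score is over 2.8 or under -1.5; controls are left without a call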
# The deposit covers about 18,000 reagents; shown is a part drawn at random. Of all reagents, about 2,900 (16%) are marked active. 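Calls are made per well; low scores hint the gene aids the LPS response, high scores that it dampens it.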 Repeated entries: four replicate wells of each siRNA pool. Reagent sequences are not shown.
Gene,TNF reporter robust z-score,outcome
NDUFS8,0,inactive
NDUFS8,2.56,inactive
NDUFS8,1.86,inactive
NDUFS8,1.26,inactive
YWHAB,-0.06,inactive
YWHAB,0.26,inactive
YWHAB,-0.9,inactive
YWHAB,-0.14,inactive
SH2D3C,-0.56,inactive
SH2D3C,0.67,inactive
SH2D3C,0.51,inactive
SH2D3C,0.62,inactive
PDE4C,-1.61,active
PDE4C,-1.12,inactive
PDE4C,-1.04,inactive
PDE4C,-0.36,inactive
ACTG1,-0.91,inactive
ACTG1,-1.11,inactive
ACTG1,-0.22,inactive
ACTG1,-0.04,inactive
RASSF1,1.27,inactive
RASSF1,2.05,inactive
RASSF1,0.51,inactive
RASSF1,2.15,inactive
HNRNPM,-1.52,active
HNRNPM,-0.8,inactive
HNRNPM,-1.25,inactive
HNRNPM,-1.81,active
PLAT,-0.41,inactive
PLAT,-0.99,inactive
PLAT,-0.42,inactive
PLAT,0.25,inactive
CNMD,-1.36,inactive
CNMD,-1.77,active
CNMD,-1.96,active
CNMD,-1.55,active
SLC52A3,0.81,inactive
SLC52A3,1.51,inactive
SLC52A3,-0.24,inactive
SLC52A3,0.7,inactive
SARS2,-1.59,active
SARS2,-0.25,inactive
SARS2,-1.46,inactive
SARS2,-0.59,inactive
CACUL1,1.13,inactive
CACUL1,1.08,inactive
CACUL1,1.52,inactive
CACUL1,-0.76,inactive
FPR3,-1.05,inactive
FPR3,-0.35,inactive
FPR3,-0.9,inactive
PRB3,-0.28,inactive
PRB3,0.86,inactive
PRB3,0.24,inactive
PRB3,-0.13,inactive
RAMAC,0.29,inactive
RAMAC,2.14,inactive
RAMAC,0.41,inactive
RAMAC,1.16,inactive
PRR30,4.03,active
PRR30,1.13,inactive
PRR30,0.68,inactive
PRR30,0.82,inactive
KRTAP12-4,-1.36,inactive
KRTAP12-4,-1.58,active
KRTAP12-4,-1.56,active
KRTAP12-4,-1.85,active

17 entries from above, sorted by “TNF reporter robust z-score”, lowest first:
Gene,TNF reporter robust z-score,outcome
PDE4C,-1.61,active
HNRNPM,-1.52,active
HNRNPM,-1.25,inactive
PDE4C,-1.12,inactive
ACTG1,-1.11,inactive
PDE4C,-1.04,inactive
ACTG1,-0.91,inactive
HNRNPM,-0.8,inactive
PDE4C,-0.36,inactive
ACTG1,-0.22,inactive
ACTG1,-0.04,inactive
SH2D3C,0.51,inactive
RASSF1,0.51,inactive
SH2D3C,0.62,inactive
RASSF1,1.27,inactive
RASSF1,2.05,inactive
RASSF1,2.15,inactive

Additional entries follow.
Gene,TNF reporter robust z-score,outcome
NCOA3,-0.82,inactive
NCOA3,-1.2,inactive
NCOA3,-1.35,inactive
NCOA3,-0.89,inactive
ARL15,-1.06,inactive
ARL15,-0.08,inactive
ARL15,-0.89,inactive
ARL15,-0.27,inactive
PARN,-1.09,inactive
PARN,-0.64,inactive
PARN,-0.48,inactive
PARN,-0.47,inactive
COX5B,-0.72,inactive
COX5B,-0.31,inactive
COX5B,0.2,inactive
COX5B,0.65,inactive
WNT8A,-0.68,inactive
WNT8A,0.35,inactive
WNT8A,1.18,inactive
WNT8A,0.95,inactive
DNAH10,1.65,inactive
DNAH10,2.5,inactive
DNAH10,0.24,inactive
DNAH10,1.14,inactive
ATP13A3,-0.88,inactive
ATP13A3,-1.16,inactive
ATP13A3,-0.51,inactive
ATP13A3,0.07,inactive
C15orf32,0.59,inactive
C15orf32,0.49,inactive
C15orf32,0.28,inactive
C15orf32,0.1,inactive
ERGIC2,2.57,inactive
ERGIC2,1,inactive
ERGIC2,1.43,inactive
ERGIC2,1.08,inactive
MTRFR,-0.35,inactive
MTRFR,-0.42,inactive
MTRFR,0.71,inactive
MTRFR,0.3,inactive
DMP1,-0.52,inactive
DMP1,0.09,inactive
DMP1,-0.18,inactive
DMP1,0.82,inactive
HS6ST1,-0.4,inactive
HS6ST1,-0.29,inactive
HS6ST1,-0.27,inactive
HS6ST1,-0.46,inactive
LTA4H,0.21,inactive
LTA4H,0.83,inactive
LTA4H,0.78,inactive
LTA4H,0.86,inactive
MUSTN1,-1.04,inactive
MUSTN1,-0.89,inactive
MUSTN1,-1.4,inactive
MUSTN1,-0.9,inactive
SLC7A2,0.71,inactive
SLC7A2,0.86,inactive
SLC7A2,0.41,inactive
SLC7A2,0.45,inactive
GALR1,0.66,inactive
GALR1,1.11,inactive
GALR1,1.57,inactive
GALR1,2.78,inactive
OXTR,-0.63,inactive
OXTR,1.06,inactive
OXTR,-0.78,inactive
OXTR,0.28,inactive
CCDC106,1.59,inactive
CCDC106,0.59,inactive
CCDC106,2.89,active
CCDC106,1.98,inactive
PRSS42P,1.08,inactive
PRSS42P,-0.3,inactive
PRSS42P,0.85,inactive
PRSS42P,1.41,inactive
